In paper PMC10244369:
No constants are given. Whether binding was seen depends on the method and setting. In cells and extracts the contact can be indirect.

By UniProt entry, the sequences of proteins in these tests, tags left out. Residues count along the entry.
UniProt Q15116, residues 25-288: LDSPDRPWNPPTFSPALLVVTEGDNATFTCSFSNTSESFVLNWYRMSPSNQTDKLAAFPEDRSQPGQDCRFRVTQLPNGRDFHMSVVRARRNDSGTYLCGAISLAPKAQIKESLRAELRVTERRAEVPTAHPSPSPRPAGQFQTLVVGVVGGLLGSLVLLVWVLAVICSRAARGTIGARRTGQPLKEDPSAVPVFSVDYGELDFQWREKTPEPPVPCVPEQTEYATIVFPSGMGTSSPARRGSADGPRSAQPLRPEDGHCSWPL
UniProt P29351: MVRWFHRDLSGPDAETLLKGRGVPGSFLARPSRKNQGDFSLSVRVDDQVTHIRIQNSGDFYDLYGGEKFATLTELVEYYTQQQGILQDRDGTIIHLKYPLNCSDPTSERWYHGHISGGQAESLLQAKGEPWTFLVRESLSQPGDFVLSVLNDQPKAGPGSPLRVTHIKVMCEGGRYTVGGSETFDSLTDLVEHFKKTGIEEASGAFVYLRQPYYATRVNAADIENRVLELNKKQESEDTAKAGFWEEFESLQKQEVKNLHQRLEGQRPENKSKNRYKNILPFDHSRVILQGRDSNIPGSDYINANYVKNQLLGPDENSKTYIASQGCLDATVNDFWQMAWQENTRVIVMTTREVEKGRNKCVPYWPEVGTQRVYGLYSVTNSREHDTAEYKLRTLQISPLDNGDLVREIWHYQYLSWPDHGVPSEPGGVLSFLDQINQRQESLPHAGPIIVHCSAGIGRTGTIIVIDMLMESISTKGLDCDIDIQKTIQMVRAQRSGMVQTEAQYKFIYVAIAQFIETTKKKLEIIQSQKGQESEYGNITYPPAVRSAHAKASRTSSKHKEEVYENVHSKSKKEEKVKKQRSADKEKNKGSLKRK

Target: enhanced green fluorescent protein-tagged hPD-1 (human) (UniProt Q15116)
Assay: co-IP; 2D12 cells expressing hPD-1-EGFP conjugated with MCC88-103-prepulsed DC-1 cells not expressing or expressing hPD-L1; lysis buffer 50 mM Tris-HCl, 50 mM NaCl, 5 mM EDTA, 1% NP-40; immunoprecipitated by anti-GFP, blotted for SHP1, SHP2

Substance: SHP1 (from UniProt P29351 1-595) (enzyme)
- binding: no binding
